In all, about 400,000 compounds went through this assay and about 13,000 (3.2%) were called active. The inconclusive results got no clear call from the source; some entries with a clear call stand among them for comparison. Calls follow the shape of the dose curve; as a rule, active = well fitted cell-killing curve with a large enough effect; inconclusive = small, poorly fitted or top-dose-only effect, or effect the other way; inactive = flat fitted curve, though single readings scatter. Potencies beside an inconclusive call are fits to weak or partial responses and may not hold up.
Assay: qHTS assay for MDR1-selective chemotherapeutics: Primary screen using the drug-selected MDR subline cells KB-V1; also: nearly all actives have a fitted effect of over 60% in size
Conditions: KB-V1 MDR cells viability, CellTiter-Glo, 72 h; series mostly up to 46.1 µM
Summary of the method: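 KB-V1, DMEM (no phenol red) + 10% FBS; cpd pin-transferred, titration series; 72 h, 37 degrees C; CellTiter-Glo, luminescence. Data normalized, curve-fit.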
Potency is read from the fitted curve at half-maximal effect.

Compound	Potency
CCOC(=O)c1[nH]c(C)c(/C(O)=C2\C(=O)C(=O)N(CCN(C)C)C2c2ccc(C)o2)c1C (configuration not stated)	inconclusive: 16.4 µM [cytotoxic, partial curve]
O=C(N/N=C/c1ccc2c(c1)OCO2)c1ccccn1	active: 14.6 µM
O=C(O)c1ccc2c(c1)ncn2C1CCCC1	inactive
O=C(NCc1ccc(Cl)cc1)c1ccc(NC(=O)N2CC3CCCN3c3ccccc32)cc1 (configuration not stated)	inactive
CSc1ccccc1NC(=O)CN(C)CC(=O)Nc1ccc(Cl)cc1[N+](=O)[O-]	inconclusive: 8.2 µM [cytotoxic, partial curve]
COc1cccc(C(C(=O)NC2CCCC2)N(Cc2ccco2)C(=O)c2ccco2)c1OC (configuration not stated)	active: 2.91 µM
O=C(CCc1nnc(-c2ccc3c(c2)OCO3)o1)N1CCC(c2ccc(F)cc2)C1 (configuration not stated)	inconclusive: 32.6 µM [cytotoxic, single point]
S=c1[nH]nc(-c2cccc(Cl)c2)n1Cc1ccccc1	inconclusive: 16.4 µM [rising, partial curve, poor fit]
CCc1ccc(C(=O)N2CCN(c3ccc(NC(=O)c4ccco4)cc3)CC2)cc1	inconclusive: 29.1 µM [cytotoxic, single point]
Cc1ccccc1OCC(=O)NCCS(=O)(=O)N1CCN(c2ccc(F)cc2)CC1	inconclusive: 23.1 µM [cytotoxic, partial curve]
COc1ccc(CC(=O)Nc2c3c(nn2-c2cccc(C)c2C)CS(=O)(=O)C3)cc1	inconclusive: 9.2 µM [cytotoxic, partial curve]
COc1cc(NC(=O)CSc2nc(C)c(C)c(C)n2)c(C)cc1[N+](=O)[O-]	active: 14.6 µM
CCOC(=O)N1CCC(NC(=O)c2cc(S(=O)(=O)N(CC)CC)ccc2F)CC1	inconclusive: 13 µM [cytotoxic, partial curve]
CC(C)(C)OC(=O)NCCCCCc1nnc(SCc2ccc(F)cc2)o1	inconclusive: 7.31 µM [cytotoxic, partial curve, poor fit]
CN(C)S(=O)(=O)n1cc(/C=C(\NC(=O)c2ccccc2Cl)C(=O)NCCCN2CCOCC2)c2ccccc21	inconclusive: 3.26 µM [rising, full curve, poor fit]
O=C1CC(N2CCC(Cc3ccccc3)CC2)C(=O)N1CCc1ccccc1 (configuration not stated)	inconclusive: 8.2 µM [cytotoxic, partial curve]
CN(C)S(=O)(=O)c1ccc(NC(=O)c2cc(-c3cccs3)nc3ccccc23)cc1	inconclusive: 14.6 µM [cytotoxic, partial curve]

Ordered by count of non-hydrogen atoms (low to high): 3 of the compounds above
Compound	Potency
O=C(N/N=C/c1ccc2c(c1)OCO2)c1ccccn1	active: 14.6 µM
COc1ccc(CC(=O)Nc2c3c(nn2-c2cccc(C)c2C)CS(=O)(=O)C3)cc1	inconclusive: 9.2 µM [cytotoxic, partial curve]
COc1cccc(C(C(=O)NC2CCCC2)N(Cc2ccco2)C(=O)c2ccco2)c1OC (configuration not stated)	active: 2.91 µM

— PubChem BioAssay AID1347076 (National Center for Advancing Translational Sciences (NCATS), 2019)
